# Source: PubChem BioAssay AID504444 (National Center for Advancing Translational Sciences (NCATS), 2011)
# Out of some 360,000 compounds screened, about 7,500 (2.1%) were called active. This list was built around the results that the source calls inconclusive (neither active nor inactive); the mix of calls is not that of the screen. Calls come from the whole dose curve; as a rule, active = well fitted inhibition curve with a large enough effect; inconclusive = small, poorly fitted or top-dose-only effect, or effect the other way; inactive = flat fitted curve, though single readings scatter. Potencies beside an inconclusive call are fits to weak or partial responses and may not hold up.
# Test: Nrf2 qHTS screen for inhibitors; note: nearly all actives have a fitted effect of over 60% in size
# Settings: A549 ARE-Fluc reporter, luciferase luminescence, 18-24 h; series mostly up to 46 µM
# Outline: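 Quantitative HTS in A549 cells stably bearing an antioxidant response element-firefly luciferase construct. Inhibition of Nrf2-driven transcription was scored by luminescence after 18-24 h of compound exposure at 37 °C.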
# Potency is the fitted concentration of half-maximal effect.
row,Structure (SMILES),Potency
1,Cc1ccc(S(=O)(=O)N/N=C/c2c[nH]c3ccccc23)cc1,"inconclusive: 23.1 µM [falling, partial curve]"
2,COc1ccc2c(CNCc3cccs3)c(C(=O)O)n(Cc3ccccc3C)c2c1,inactive
3,COc1cc(OC)c(N(C)C(=O)c2cc3c(s2)-c2ccccc2OC3)cc1Cl,"inconclusive: 20.6 µM [falling, single point]"
4,O=C(OCC1CCCO1)c1ccc2c(c1)N(Cc1ccc(F)cc1)C(=O)c1ccccc1S2(=O)=O (stereo not drawn),"inconclusive: 16.4 µM [activator, partial curve, poor fit]"
5,Cc1ccc(S(=O)(=O)NNC(=O)/C=C/c2cccc(F)c2)cc1,"inconclusive: 18.4 µM [falling, partial curve, poor fit]"
6,N/C(=N\O)c1ccc(N2CCN(c3ncccc3C(F)(F)F)CC2)nc1,"inconclusive: 5.8 µM [activator, single point]"
7,COc1ccc(CCNc2nc(-c3ccc(NC(C)=O)cc3)cs2)cc1OC,"inconclusive: 29.1 µM [falling, single point]"
8,c1ccc(-n2nnc(-c3nccs3)n2)cc1,"inconclusive: 11.6 µM [activator, partial curve]"
9,Cc1cc(-c2nnc(CCC(=O)N(C)Cc3cccc4ccccc34)o2)no1,"inconclusive: 25.9 µM [activator, single point]"
10,COc1cc(NCCCCCCN)c2ncccc2c1OC,"inconclusive: 18.4 µM [falling, single point]"
11,COc1ccc(-n2c(=O)/c(=C\c3cccs3)s/c2=C(/C#N)C(=O)NCCN2CCOCC2)cc1,inactive
12,CC(=O)c1cccc(NC(=O)C2C(c3ccccc3)C2(Cl)Cl)c1 (stereo not drawn),"inconclusive: 0.82 µM [falling, full curve, poor fit]"
13,Cc1ccc(S(=O)(=O)N(CC(O)Cn2c3ccccc3c3ccccc32)c2cccc(C(=O)NCCO)c2)cc1 (stereo not drawn),"inconclusive: 29.1 µM [falling, single point]"
14,CCOCCOC(=O)C1=C(C)NC(=O)NC1c1cc2c(cc1Br)OCO2 (stereo not drawn),"inconclusive: 29.1 µM [falling, single point]"
15,COC(=O)c1c(NC(=O)c2ccccc2)sc(C(N)=O)c1C,"inconclusive: 2.59 µM [falling, full curve, poor fit]"
16,Cc1cc(NC(=O)COC(=O)C2CCN(S(=O)(=O)c3ccccc3)CC2)c([N+](=O)[O-])cc1C,inactive
17,CCOc1cc(CNc2ccc(O)cc2)cc(Cl)c1OCc1ccccc1,"inconclusive: 29.1 µM [falling, single point]"
18,OCCCc1nc2n(n1)C(c1ccccc1)C=C(c1ccc(F)cc1)N2 (stereo not drawn),"inconclusive: 6.51 µM [falling, partial curve, poor fit]"
19,Cn1nc(-c2ccccc2F)c2cc(C(=O)N3CCN(c4ccccc4F)CC3)sc21,"inconclusive: 29.1 µM [falling, single point]"
20,CCOc1ccc(NC(=O)c2cc3nc(-c4ccc(OC)cc4)cc(C(F)(F)F)n3n2)cc1,"inconclusive: 6.51 µM [activator, single point]"
21,Cc1nn(-c2nnc(NC3CCCCC3)nn2)c(C)c1Br,"inconclusive: 29.1 µM [activator, single point]"

# Arranged by SMILES length (ascending): part of the list above
row,Structure (SMILES),Potency
7,COc1ccc(CCNc2nc(-c3ccc(NC(C)=O)cc3)cs2)cc1OC,"inconclusive: 29.1 µM [falling, single point]"
2,COc1ccc2c(CNCc3cccs3)c(C(=O)O)n(Cc3ccccc3C)c2c1,inactive
20,CCOc1ccc(NC(=O)c2cc3nc(-c4ccc(OC)cc4)cc(C(F)(F)F)n3n2)cc1,"inconclusive: 6.51 µM [activator, single point]"

# Additional structures.

row,Structure (SMILES),Potency
1,COc1ccc(-c2ccc(SCC(=O)Nc3nccs3)nn2)cc1OC,"inconclusive: 3.66 µM [falling, partial curve, poor fit]"
2,COc1ccc(/C=N/NC(=O)c2cccc(NC(=O)c3ccc(F)cc3)c2)c(C(=O)O)c1OC,"inconclusive: 5.17 µM [activator, partial curve, poor fit]"
3,O=C1COc2ccc(S(=O)(=O)Nc3ccc(OC(F)(F)F)cc3)cc2N1,"inconclusive: 25.9 µM [falling, partial curve, poor fit]"
4,CCCc1cc(C(=O)N2CCCC(CO)(CCCc3ccccc3)C2)n(C)n1 (stereo not drawn),"inconclusive: 2.59 µM [falling, single point]"
5,Cc1nnc(Oc2ccc([N+](=O)[O-])cc2)c2ccccc12,"inconclusive: 2.06 µM [falling, partial curve, poor fit]"
6,O=C(O)CCSCC(=O)c1ccc2c(c1)OCCO2,"inconclusive: 9.2 µM [falling, partial curve]"
7,COc1cccc(C(=O)Nc2ccc3c(c2)OCO3)c1OC,"inconclusive: 5.8 µM [activator, full curve]"
8,CCc1c(C)nc2c(-c3ccccc3)c(C)nn2c1Nc1ccc(NC(C)=O)cc1,"inconclusive: 18.4 µM [falling, single point]"
9,COc1ccc(-c2csc(NC(=S)NC(=O)/C=C/c3ccco3)n2)cc1Br,"inconclusive: 29.1 µM [falling, single point]"
10,COc1ccc2c(Sc3ccc(C)cc3)c(C(=O)NC(C)c3ccccc3)[nH]c2c1 (stereo not drawn),"inconclusive: 29.1 µM [falling, single point]"
11,N#CC(=C=[N-])C1=C(C#N)C(c2ccccc2F)C([n+]2ccccc2)C(O)(C2CC2)N1 (stereo not drawn),"inconclusive: 6.51 µM [activator, single point]"
12,COc1ccc(/C=C/c2onc(C)c2S(=O)(=O)N2CCC(C(=O)N3CCCCCC3)CC2)cc1,"inconclusive: 18.4 µM [falling, single point]"
13,O=C1CCc2cc(S(=O)(=O)Nc3cccc(F)c3)ccc2N1,"inconclusive: 16.4 µM [falling, partial curve, poor fit]"
14,Cc1cc2nccc(-c3ccc(Cl)c([N+](=O)[O-])c3)n2n1,"inconclusive: 16.4 µM [activator, partial curve, poor fit]"
15,Cc1cc(S(=O)(=O)Nc2cc(C)c(O)c(C)c2)c(C)s1,active: 10.3 µM
16,COc1cc(CN(C2CCCCC2C)S(=O)(=O)c2ccc(S(=O)(=O)NC3CC3)cc2)cc(OC)c1OC (stereo not drawn),"inconclusive: 18.4 µM [falling, single point]"
17,O=C1NCCN/C1=C\C(=O)c1ccc(Cl)cc1,"inconclusive: 0.58 µM [activator, full curve]"
18,Nc1c(-c2ccc(Cl)cc2)cnc2c(-c3ccccc3)cnn12,"inconclusive: 0.82 µM [activator, partial curve]"
19,CSc1nc2sc3c(c2c(=O)[nH]1)CCc1ccccc1-3,"inconclusive: 0.116 µM [activator, full curve, poor fit]"
20,CCc1cc(SC#N)cc(C)c1NC(=O)CCl,"inconclusive: 18.4 µM [falling, single point]"
21,CCCCNC(=O)c1cc(-c2ccc3c(c2)OCO3)on1,"inconclusive: 2.59 µM [activator, full curve]"

row,Structure (SMILES),Potency
1,c1ccc(OCc2cc(-c3ccccc3)no2)cc1,"inconclusive: 14.6 µM [activator, partial curve]"
2,COc1cc(COCC(O)CN2CCN(CCN3C(=O)c4cccc5cccc(c45)C3=O)CC2)cc(OC)c1OC (stereo not drawn),inactive
3,CN(C)c1ccc(C=c2c3ccccc3n3c2c2c([n+]3C)CCCC2)cc1,active: 6.51 µM
4,CCOc1ccc(CN(C)C(=O)c2ccc(S(=O)(=O)N(C)c3ccccc3OC)cc2)cc1,"inconclusive: 29.1 µM [falling, single point]"
5,COc1ccc(CC(=O)NCCCc2ccccc2)cc1OC,"inconclusive: 23.1 µM [falling, single point]"
6,COc1ccc(C(=O)NC(=S)Nc2cccc(Cl)c2N2CCOCC2)cc1[N+](=O)[O-],"inconclusive: 13 µM [falling, partial curve]"
7,Cc1ccc(C(=O)Nc2ccc(S(=O)(=O)N(Cc3ccccc3)c3ccccc3)cc2)cc1,"inconclusive: 13 µM [falling, partial curve]"
8,CC(=O)OCC(=O)Nc1ccc(Br)c(C)c1,inactive
9,O=C(NNC(=O)c1ccccn1)c1cccc([N+](=O)[O-])c1,"inconclusive: 29.1 µM [falling, single point]"
10,CCc1ccc(-c2nc(CN3CCC(C(=O)NCc4ccco4)CC3)c(C)o2)cc1,inactive
11,COc1ccc(NC(=O)C2=CC(c3ccc4c(c3)OCO4)=NS(=O)(=O)N2C)cc1OC,"inconclusive: 18.4 µM [activator, single point]"
12,CCOc1ccc(NC(=O)CCn2c(=O)[nH]c3ccsc3c2=O)cc1,"inconclusive: 29.1 µM [falling, single point]"
13,CC1CCN(S(=O)(=O)c2ccc(NC(=O)C3CC3)cc2)CC1,"inconclusive: 29.1 µM [falling, partial curve, poor fit]"
14,Cc1ccc(NS(=O)(=O)c2ccc(OCC(=O)NCc3cccnc3)cc2)cc1,"inconclusive: 20.6 µM [falling, single point]"
15,CCOC(=O)c1cccnc1SCC(=O)Nc1ccc(C)cc1,"inconclusive: 11.6 µM [activator, partial curve]"
16,CCN1CCN(c2nc(-c3cccnc3)nc3ccccc23)CC1,"inconclusive: 20.6 µM [falling, single point]"
17,CCN1CCN(c2ccc(NC(=O)c3ccccc3F)cc2Cl)CC1,"inconclusive: 23.1 µM [activator, single point]"
18,O=C(NCc1ccco1)c1sc2ccccc2c1Cl,"inconclusive: 11.6 µM [activator, partial curve, poor fit]"
19,Cc1ccc(CNC(=O)Cn2c(-c3cccs3)cc3cc(Cl)ccc32)cc1,inactive
20,Cc1ccc(N2C(=O)C(CC(=O)Nc3ccc(F)cc3)N(Cc3ccc4c(c3)OCO4)C2=O)cc1 (stereo not drawn),inactive
21,CC(Oc1cccnc1[N+](=O)[O-])C(=O)Nc1ccc(Cl)cn1 (stereo not drawn),inactive
